According to patent publication US6869974B1, “Pharmaceutical compounds” (Nicox S.A., priority 1999, dated 2005):
Some entries share one result that the patent states for a list of compounds.

Experiment: Test 4: inhibition of radical production from DPPH
Conditions: 100 μM (10^-4 M) in methanol, 30 minutes, absorbance 517 nm
Method: Test 4 is a […] test which affords to establish whether the precursor of B or B1 (precursor of the X2 or X2a of the formulas (I) and (II) respectively), inhibits the production of radicals from DPPH (2,2-diphenyl-1-picryl-hydrazyl) (M. S. Nenseter et Al., Atheroscler. Thromb. 15, 1338-1344, 1995). 100 μM solutions in methanol of the tested substances are prepared, and an aliquot of each of said solutions is added to a DPPH solution in methanol […]. After having stored the solutions at room temperature away from light for 30 minutes, their absorbances are read at the wave length of 517 nm, together with that of the corresponding DPPH solution at the same concentration. The absorbance decrease with respect to that of the solution of DPPH at the same concentration of the test solutions is determined. The effectiveness of the tested compound in inhibiting formation of radicals by DPPH is expressed by the following formula: (1−AS/AC)X100 wherein AS and AC are respectively the absorbance values of the solution containing the test compound together with DPPH and of the solution containing only DPPH.
The B or B1 precursor satisfies test 4 if their effectiveness in inhibiting radical production as above defined, is equal to or higher than 50% at the indicated concentration (10^−4 M).
Test 4: inhibition of the radical production from DPPH of some substances to be used as precursors of B or B1 (ref. Formulas I and II of the invention)
The method is based on a colorimetric test in which DPPH (2,2-diphenyl-1-picryl-hydrazyl) is used as the compound-forming radicals (M. S. Nenseter et Al., Atheroscler. Thromb. 15, 1338-1344, 1995).
Solutions in methanol of the tested substances at a final concentration 100 μM are initially prepared. 0.1 ml of each of these solutions are added to aliquots of 1 ml of a methanol solution 0.1 M of DPPH and then the final volume is brought to 1.5 ml. After having stored the solutions at room temperature away from light for 30 minutes, the absorbance at the wave length of 517 nm is read. It is determined the absorbance decrease with respect to the absorbance of a solution containing the same concentration of DPPH.
The efficacy of the test compound to inhibit the production of radicals, or antiradical activity, is expressed by the following formula: (1−AS/AC)X100 wherein AS and AC are, respectively, the absorbance values of the solution containing the test compound together+DPPH and of the solution containing only DPPH.
The compound meets test 4 if radical production inhibition, as above defined, is equal to or higher than 50%.

N[C@@H](CS)C(=O)O [Cisteine, cisteine]
% inhibition radicals from DPPH (listed as cisteine): more than 50%

COc1cc(/C=C/C(=O)O)ccc1O [Ferulic acid, ferulic acid]
% inhibition radicals from DPPH (listed as ferulic acid): more than 50%

O=C(O)c1cc(O)ccc1O [Gentisic acid, gentisic acid]
% inhibition radicals from DPPH (listed as gentisic acid): more than 50%

CC(=O)N[C@H](CS)C(=O)O [N-acetylcisteine]
% inhibition radicals from DPPH: more than 50%
